Source: US5622934A, “Peptides with an insulin-like action” (priority 1991, dated 1997)
At least one peptide structure holds a part that was inferred or is arguable (an end, a ring closure or a residue). Residues, ends and D or L forms follow the SMILES beside them. *: point of attachment. NHCH2CH2OH = OCCN*

How the values were obtained:
[1] = test system: plasma membrane vesicles from rat fat cells; assay: Glucose transport activity in isolated plasma membrane vesicles; type: biochemical
Procedure: (§1) The biological activity of the peptides of formula I according to the invention is determined with the aid of preparatively isolated rat fat cells and diaphragm fragments.
(§2) Rat fat cells were prepared as follows: Fatty tissue of the epididymis (Wistar rat, 160-180 g, no feed restriction) is digested with collagenase and the resulting isolated fat cells are washed several times by flotation.
C) Glucose transport activity
Isolated plasma membrane vesicles are obtained from rat fat cells by washing the fat cells twice in homogenization buffer (20 mM trihydroxyaminomethane (Tris)/HCl, pH 7.4, 1 mM, 4° C., EDTA, 0.25M sucrose) and then homogenizing them in 20 ml of the same buffer (glass homogenizer with Teflon pestle).
The homogenate is centrifuged (16,000×g, 15 min) and the sediment is suspended in the same buffer and centrifuged again. […]
Isolated plasma membrane vesicles are incubated for 30 min at 25° C. in the presence or absence of insulin or the peptides according to the invention. The vesicles are then incubated for 10 sec at 25° C. with 50 μM D-[3-^3 H]glucose and […] of the same specific radioactivity. […] Their radioactivity is determined by liquid scintillation measurement. The specific transport (D-[^3 H]glucose/L-[^4 C]glucose [dpm×10^-3 ]) is calculated as the difference between the [^3 H] and [^14 C] radioactivity. […]

[2] = test system: rat diaphragm fragments; assay: Glycogenesis: glycogen synthesis in rat diaphragm fragments; type: cell-based
Procedure: as §1
Preparation of rat diaphragm fragments: Small tissue fragments (5 mm diameter) are punched out of hemidiaphragms (Wistar rat, 60-70 g, no feed restriction) which have been washed several times.
This test determines the insulin-stimulatable glycogen synthesis in muscle cells, comprising the glucose transport via the plasma membrane and the conversion of the glucose to glycogen, including the functional insulin signal transmission cascade.
Diaphragm fragments are incubated for 15 min at 37° C. in Krebs-Ringer-Henseleit buffer (KRH buffer) with 50 μM D-[U-^14 C]glucose in the presence or absence of insulin or the peptides according to the invention. After the medium has been filtered with suction, the tissue fragments are intensively washed, frozen at -70° C. and then homogenized at 2° C. in a Polytron pulverizer. The homogenate is centrifuged (2000 g) and the supernatant is pipetted onto filter paper. To determine the glycogen formed, the filters are transferred into trichloroacetic acid (TCA) (5%), washed with ethanol and acetone and dried and their radioactivity is determined via scintillation measurement ([^14 C]glycogen [dpm×10^-3 ]).
(§3) The action of human insulin (HI) is given a value of 100%. […]

[3] = test system: rat fat cells; assay: Lipogenesis: conversion of glucose to toluene-soluble products in isolated rat fat cells; type: cell-based
Procedure: as §1, §2
This test determines the insulin-stimulatable conversion of glucose to toluene-soluble products (triglycerides, phospholipids, fatty acids), requiring the glucose transport and the triglyceride (glycerol-3-P synthesis, esterification)/phospholipid/fatty acid synthesis, including the insulin signal transmission cascade.
Rat fat cells in KRH buffer are incubated for 90 min at 37° C. with D-[3-^3 H]glucose (0.2 mM or 1 mM final concentration) in the presence or absence of insulin or peptides according to the invention. By the addition of a toluene-soluble scintillation cocktail, the cells are digested and the lipids separated from water-soluble products and the incubation medium. After phase separation, the radioactivity incorporated into lipids is determined by scintillation measurement directly without removal of the aqueous phase ([^3 H]lipid [dpm×10^-3 ]).
as §3

[4] = 25% of the maximum human insulin action

SMILES: NC(=O)C[C@H](NC(=O)[C@H](CS)NC(=O)[C@@H](N)Cc1ccc(O)cc1)C(=O)NCCO [Example 1, H--L--Tyr--L--Cys--L--Asn--NH--CH2 --CH2 --OH] (H-Tyr-Cys-Asn-NHCH2CH2OH)
- Concentration [μM] at which 20% of the max. HI action is reached (glucose transport) ([1]; 20% of the maximum human insulin action): 240 µM
- Glucose transport % of the max. HI action ([1]; 30 min at 25° C., then 10 sec with 50 μM D-[3-3H]glucose, human insulin (HI) = 100%): 42%
- Concentration [μM] at which 25% of the max. HI action is reached (glycogenesis) [2, 4]: 550 µM
- Glycogenesis % of the max. HI action ([2]; 15 min at 37° C., 50 μM D-[U-14C]glucose, human insulin (HI) = 100%): 26%
- Concentration [μM] at which 25% of the max. HI action is reached (lipogenesis) [3, 4]: 375 µM
- Lipogenesis % of the max. HI action ([3]; 90 min at 37° C., D-[3-3H]glucose, human insulin (HI) = 100%): 35%
